PubChem BioAssay AID1508587, Peter MacCallum Cancer Centre – 2020
This is a random part of about 1,600 reagents. Of all reagents, 623 (39%) were called active. 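Calls are for each duplex; lactate ratios contain extreme outliers.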 Not all columns of the deposit are shown.

- Aim: 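Knockdowns that add to vemurafenib's cut in melanoma glycolysis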 (follow-up of hits)
- Cell system: human WM266.4 melanoma cells with a BRAF V600 mutation
- Reagents: single siRNA against human genes, 25 nM
- Timing: 96 h
- Challenge: vemurafenib 300 nM (about IC25), given 48 h after transfection for 48 h
- Measurement: 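Medium lactate read by absorbance over DAPI-counted nuclei; ratio with versus without vemurafenib, set against non-targeting siRNA, averaged over 2 replicates; cell number also recorded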
- Direction: lactate per cell, drug vs no drug: higher = less drug-induced drop in lactate per cell; lactate per cell with vemurafenib: higher = more lactate per cell under drug
- Call rule: 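Enhancer call for any duplex whose drug versus no-drug per-cell lactate ratio is below 0.55 (2 SD beneath non-targeting average); genes confirmed when at least 2 of their 4 duplexes qualify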

EMP3 [SID134250097] — lactate per cell, drug vs no drug: 0.77; lactate per cell with vemurafenib: 2.97; outcome: inactive
EMP3 [SID134250098] — lactate per cell, drug vs no drug: 0.7; lactate per cell with vemurafenib: 1.68; outcome: inactive
EMP3 [SID134250099] — lactate per cell, drug vs no drug: 0.78; lactate per cell with vemurafenib: 0.94; outcome: inactive
EMP3 [SID134250100] — lactate per cell, drug vs no drug: 0.86; lactate per cell with vemurafenib: 2.53; outcome: inactive
SLC38A10 [SID134239353] — lactate per cell, drug vs no drug: 0.48; lactate per cell with vemurafenib: 1.26; outcome: active
SLC38A10 [SID134239354] — lactate per cell, drug vs no drug: 0.62; lactate per cell with vemurafenib: 0.88; outcome: inactive
SLC38A10 [SID134239355] — lactate per cell, drug vs no drug: 0.68; lactate per cell with vemurafenib: 1.23; outcome: inactive
SLC38A10 [SID134239356] — lactate per cell, drug vs no drug: 0.76; lactate per cell with vemurafenib: 2.39; outcome: inactive
CRIP2 [SID134232837] — lactate per cell, drug vs no drug: 0.57; lactate per cell with vemurafenib: 0.78; outcome: inactive
CRIP2 [SID134232838] — lactate per cell, drug vs no drug: 0.3; lactate per cell with vemurafenib: 0.36; outcome: active
CRIP2 [SID134232839] — lactate per cell, drug vs no drug: 0.45; lactate per cell with vemurafenib: 2.67; outcome: active
CRIP2 [SID134232840] — lactate per cell, drug vs no drug: 0.41; lactate per cell with vemurafenib: 0.52; outcome: active
ARIH1 [SID134284661] — lactate per cell, drug vs no drug: 0.55; lactate per cell with vemurafenib: 1.08; outcome: inactive
ARIH1 [SID134284662] — lactate per cell, drug vs no drug: 0.44; lactate per cell with vemurafenib: 1.11; outcome: active
ARIH1 [SID134284663] — lactate per cell, drug vs no drug: 0.6; lactate per cell with vemurafenib: 1.04; outcome: inactive
ARIH1 [SID134284664] — lactate per cell, drug vs no drug: 0.46; lactate per cell with vemurafenib: 1.4; outcome: active
CENPQ [SID134287377] — lactate per cell, drug vs no drug: 0.9; lactate per cell with vemurafenib: 1.39; outcome: inactive
CENPQ [SID134287378] — lactate per cell, drug vs no drug: 0.37; lactate per cell with vemurafenib: 0.54; outcome: active
CENPQ [SID134287379] — lactate per cell, drug vs no drug: 0.44; lactate per cell with vemurafenib: 0.4; outcome: active
CENPQ [SID134287380] — lactate per cell, drug vs no drug: 0.63; lactate per cell with vemurafenib: 1.01; outcome: inactive
CCR1 [SID134233321] — lactate per cell, drug vs no drug: 0.66; lactate per cell with vemurafenib: 1.5; outcome: inactive
CCR1 [SID134233322] — lactate per cell, drug vs no drug: 0.55; lactate per cell with vemurafenib: 1.04; outcome: inactive
CCR1 [SID134233323] — lactate per cell, drug vs no drug: 0.7; lactate per cell with vemurafenib: 1.33; outcome: inactive
CCR1 [SID134233324] — lactate per cell, drug vs no drug: 0.47; lactate per cell with vemurafenib: 0.96; outcome: active
LRRC8D [SID134268813] — lactate per cell, drug vs no drug: 0.6; lactate per cell with vemurafenib: 0.94; outcome: inactive
LRRC8D [SID134268814] — lactate per cell, drug vs no drug: 0.56; lactate per cell with vemurafenib: 1.49; outcome: inactive
LRRC8D [SID134268815] — lactate per cell, drug vs no drug: 0.39; lactate per cell with vemurafenib: 0.98; outcome: active
LRRC8D [SID134268816] — lactate per cell, drug vs no drug: 0.76; lactate per cell with vemurafenib: 1.73; outcome: inactive
